Laboratory results reported in publication PMC7886901.

Chains of the proteins cited; added tags and fusions are not shown. Lines headed by an entry give the natural chain unless they say otherwise; changes in a name come on top.
UniProt Q15326: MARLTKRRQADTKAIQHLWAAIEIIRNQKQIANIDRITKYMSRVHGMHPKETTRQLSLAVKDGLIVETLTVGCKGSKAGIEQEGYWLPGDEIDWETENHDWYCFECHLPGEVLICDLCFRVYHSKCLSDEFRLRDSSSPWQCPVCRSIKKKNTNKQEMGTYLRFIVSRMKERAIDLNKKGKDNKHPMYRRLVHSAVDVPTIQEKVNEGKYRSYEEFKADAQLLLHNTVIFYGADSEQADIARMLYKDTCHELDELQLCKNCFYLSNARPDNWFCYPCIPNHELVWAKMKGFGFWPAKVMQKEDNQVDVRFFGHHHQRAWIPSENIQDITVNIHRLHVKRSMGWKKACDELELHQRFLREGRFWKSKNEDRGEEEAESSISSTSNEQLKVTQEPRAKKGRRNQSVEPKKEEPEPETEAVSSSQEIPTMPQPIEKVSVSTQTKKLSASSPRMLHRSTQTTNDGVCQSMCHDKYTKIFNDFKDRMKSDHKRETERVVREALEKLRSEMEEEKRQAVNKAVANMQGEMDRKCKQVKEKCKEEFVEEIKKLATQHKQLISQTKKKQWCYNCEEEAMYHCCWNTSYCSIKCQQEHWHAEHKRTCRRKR

Biological target: ZM with its MBTD1 segment deleted (ΔM), 3XHA-3XFlag-tagged (human) (UniProt Q15326)
Test: co-IP; 3XHA-3XFlag-tagged ZM (WT or mutant) precipitated with anti-FLAG M2 magnetic beads from cleared lysates of HEK293T cells 48 h post-transfection, GFP-tagged Tip60 detected by western blot; IP175 buffer (175 mM NaCl, 0.1% NP40), Benzonase in the lysis, overnight at 4 °C

binding: no binding
Substance: Human TIP60, GFP-tagged (from UniProt Q92993-1 1-513) (enzyme)

Results are given in words; binding and its absence hold for the method and conditions named. In cells and extracts the contact can be indirect.
